About 4,500 (1.3%) of roughly 340,000 compounds were called active. Inconclusive results, whose numbers are uncertain, are shown with a selection of clear calls. The call rests on the fitted dose curve; in most records, active means well fitted inhibition curve with a large enough effect; inconclusive means small, poorly fitted or top-dose-only effect, or another doubt; inactive means no such curve, though single readings can be large or run the other way. A potency beside an inconclusive call is a rough fit, not a confirmed value.
Molecular target: DNA polymerase beta (Homo sapiens) (UniProt P06746)
Assay: qHTS Assay for Inhibitors of DNA Polymerase Beta
Conditions: Pol beta primer extension/strand displacement, fluorescence kinetic; activity change, negative = inhibition: at 114 µM (top of the series)
Method in brief: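 Reaction started by 50 nM substrate onto compound-treated Pol beta (10 nM, 15 min preincubation, room temperature); plates read at 0 min and 10 min. Normalized concentration-effect data fitted by four-parameter Hill equation.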
On the % scale 0 is the no-effect control and ±100 the full control effect; potency means the concentration at half of the fitted maximal effect.

Potency, active:
CCCn1c(NCc2ccco2)nc2c1c(=O)n(C)c(=O)n2C 22.4 µM, COCCN(CCOC)Cc1c(O)ccc2c1O/C(=C\c1ccco1)C2=O 10 µM, COCCn1c(SCC(=O)NCc2ccco2)nc2cccnc21 44.7 µM, COc1ccccc1-c1cc2nc(C)cc(C)n2n1 89.1 µM, O=C(O)C1=CC(=C(c2ccc(O)c(C(=O)O)c2)c2ccc(O)c(C(=O)O)c2)C=CC1=O 0.0224 µM, O=C(Cc1nnc(NC(=O)c2ccccc2)s1)N/N=C/c1ccc(O)cc1 25.1 µM, O=C(Nc1nnc(-c2ccccc2F)s1)C1CCCO1 (stereo not given) 31.6 µM, CC(NC(=O)/C(C#N)=C/c1ccc([N+](=O)[O-])o1)c1ccccc1 (stereo not given) 39.8 µM

Potency, inactive:
COc1ccc(-c2csc(N(CCCN(C)C)C(=O)c3ccccc3C)n2)cc1, Cc1cc(C)nc(NS(=O)(=O)c2ccc(N)cc2)n1, O=C(Nc1cccc(C(F)(F)F)c1)Nc1nnc(N2CCCCC2)s1, COc1ccc(N(C(=O)COc2ccccc2OC)S(=O)(=O)c2ccc(Cl)cc2)cc1, Cc1nn(-c2ccccc2)c(C)c1C(=O)NCc1cccs1, Cc1ccc(CNC(=O)c2sc3nc(-c4ccc(F)cc4)ccc3c2N)cc1, CCN(CC)CCNC(=O)c1[nH]c2ccccc2c1Sc1ccc(Cl)cc1, O=C(CC1N=C2c3ccccc3N=C(SCc3ccccc3Cl)N2C1=O)NCc1cccs1 (stereo not given), CCOC(=O)Cc1c(C)nc2c(-c3ccc(Cl)cc3)c(C)nn2c1C, COc1ccc(-n2c(-c3ccccc3)cc3c2CCCC3=O)cc1, CCn1cc(C(=O)NCCCOC)c2cc(OC)c(OC)cc2c1=O, Cc1cn(S(=O)(=O)c2ccc(F)c(Cl)c2)cn1, O=S(=O)(NCCc1cn2ccsc2n1)c1ccc(Cl)cc1, COc1ccc(/C=C2\C(=N)N3N=C(CC(=O)N4CCCCC4)SC3=NC2=O)cc1, Cc1ccc(C(=O)c2sc(Nc3ccc(F)cc3)nc2N)c(C)c1

Potency, inconclusive:
O=c1[nH]c(C2CCN(S(=O)(=O)c3ccc([N+](=O)[O-])cc3)CC2)nc2c1nnn2Cc1ccccc1 50.1 µM [inhibitor, partial curve], O=C(N/N=C/c1ccco1)c1cccc(N2CCCC2=O)c1 22.4 µM [inhibitor, full curve, poor fit], CCc1ccccc1OCCSc1nnc(-c2cc(OC)c(OC)c(OC)c2)o1 89.1 µM [inhibitor, single point], COC(=O)c1ccc(Cn2nnc3sc4c(c3c2=O)CCCC4)cc1 79.4 µM [inhibitor, single point], c1ccc(Nc2nc(Nc3ccccc3)nc(N3CCNCC3)n2)cc1 89.1 µM [inhibitor, single point], CCc1ccccc1NC(=O)C(C)n1nc(-c2ccc(C)c(C)c2)ccc1=O (stereo not given) 35.5 µM [inhibitor, single point], O=C(CSc1nc2ccccc2s1)Nc1ccc2c(c1)oc1ccccc12 89.1 µM [inhibitor, single point], COc1ccc(-c2nnc3sc(-c4ccco4)nn23)cc1OC 56.2 µM [inhibitor, partial curve], Cc1cc(S(=O)(=O)NCC(c2ccc(N(C)C)cc2)N2CCOCC2)ccc1F (stereo not given) 89.1 µM [inhibitor, single point], CC(=O)N1CC(=O)N(OCc2ccccc2)C1c1ccc(Cl)cc1Cl (stereo not given) 0.794 µM [inhibitor, full curve, poor fit], CCCNC(=O)Cn1nc(-c2ccc(C)c(C)c2)c2cnc3ccc(F)cc3c21 39.8 µM [inhibitor, partial curve], Clc1ccc(CNc2cc(-c3ccccc3)nc3nncn23)cc1 79.4 µM [inhibitor, single point], N#CC1=C(N)Oc2ccc3ccccc3c2C1c1cccnc1 (stereo not given) 39.8 µM [inhibitor, single point], CCOC(=O)c1c(CSc2ccc(C)cc2)oc2ccc(O)cc12 39.8 µM [inhibitor, single point], CCN(c1ccccc1)S(=O)(=O)c1ccc2[nH]cc(C(=O)NCc3ccc(C)cc3)c(=O)c2c1 3.16 µM [inhibitor, full curve, poor fit], O=C(O)CCc1ccc(S(=O)(=O)Nc2ccc(OCc3ccccc3)cc2)cc1 89.1 µM [inhibitor, single point], O=C(Nc1ccccc1C(=O)O)c1cc(S(=O)(=O)N2CCCCC2)cs1 39.8 µM [inhibitor, single point], CNCCCOc1ccc2c(c1)CCC2 89.1 µM [inhibitor, single point], CC(C)CC1Nc2ccc(C(=O)NCc3ccc4c(c3)OCO4)cc2NC1=O (stereo not given) 0.562 µM [inhibitor, full curve, poor fit], CC(C)c1nc(=S)n(-c2ccccc2)[nH]1 0.141 µM [inhibitor, full curve], COc1ccc(NC(=O)Nc2cccc(-c3cn4cccnc4n3)c2)cc1 8.91 µM [inhibitor, partial curve, poor fit], CCOc1ccc(NC(=O)Cn2c(=O)n(Cc3ccc(C(=O)NCc4ccc(C)cc4)cc3)c(=O)c3ccccc32)cc1 89.1 µM [inhibitor, single point], COCCCNC(=O)Cn1c(=O)n(Cc2ccc(C(=O)NCCc3ccc(OC)c(OC)c3)cc2)c(=O)c2ccccc21 79.4 µM [inhibitor, single point], O=C(NCC1CCCO1)c1c[nH]c2ccc(S(=O)(=O)Nc3ccc(F)cc3F)cc2c1=O (stereo not given) 25.1 µM [inhibitor, full curve], COc1ccc(Cl)cc1NC(=O)CCCC(=O)c1ccccc1 100 µM [inhibitor, single point], COc1ccc(C)cc1NC(=O)NCCCCc1ccccc1 15.8 µM [inhibitor, partial curve, poor fit], CCOC(=O)c1cnc2c(-c3ccc(Cl)cc3)cnn2c1C 0.316 µM [inhibitor, full curve], CCn1c(SCC(=O)Nc2cccc(NC(C)=O)c2)nc2c([nH]c3ccccc32)c1=O 17.8 µM [inhibitor, full curve], CSc1nc(C)c(Oc2ccccc2)c(=O)n1C 70.8 µM [inhibitor, single point], COc1ccc(OC)c(NC(=O)CCCc2ccccc2)c1 0.794 µM [inhibitor, full curve, poor fit], Cc1ccc(NC(=O)CN2C(=O)c3ccccc3Sc3ccc(C(=O)N4CCCC4)cc32)cc1 22.4 µM [inhibitor, partial curve, poor fit], CCOc1ccc2nc(NC(=O)COC)sc2c1 89.1 µM [inhibitor, single point], CC(C)NC(=O)NC(=O)COC(=O)c1c2c(nc3ccccc13)CCC2 50.1 µM [inhibitor, partial curve], CC(=O)c1cccc(S(=O)(=O)N2CCCC(c3nc4c(nnn4Cc4cccc(Cl)c4)c(=O)[nH]3)C2)c1 (stereo not given) 28.2 µM [inhibitor, full curve], O=C1CCc2ccccc2N1Cc1ccccc1 100 µM [inhibitor, single point], CC(C)n1c(=O)[nH]c2cc(C(=O)Nc3ccccc3)ccc21 63.1 µM [inhibitor, single point], Cc1ccc(NC(=O)NNC(=O)c2cc3ccccc3cc2O)c(C)c1 6.31 µM [inhibitor, full curve, poor fit], CCOC(=O)C1=C(C)NC2=C(C(=O)CC(c3cccs3)C2)C1c1cccs1 (stereo not given) 89.1 µM [inhibitor, single point], CC(=O)NNc1ncnc2c1cnn2-c1ccc(C)c(C)c1 100 µM [inhibitor, single point], O=C(COC(=O)c1ccc(S(=O)(=O)N2CCOCC2)cc1)NCc1cccs1 89.1 µM [inhibitor, single point], CCn1c2ccccc2c2cc(/C=N/NC(=O)c3ccc(O)cc3)ccc21 7.08 µM [inhibitor, full curve], N#Cc1nc(-c2cccs2)oc1NCc1ccco1 79.4 µM [inhibitor, single point], O=C1NN(c2cccc(Br)c2)C(=O)/C1=C\c1ccccc1 8.91 µM [inhibitor, full curve], Cc1onc(-c2ccccc2Cl)c1C(=O)Nc1ncn[nH]1 89.1 µM [inhibitor, single point], CC(C)CN=c1cc(-c2ccccc2)oc2ccc(Cl)cc12 56.2 µM [inhibitor, partial curve, poor fit], Cc1ccc(N2C(=O)CC(Cc3cccc(C)c3)C2=O)cc1 (stereo not given) 63.1 µM [inhibitor, single point]

Activity change, negative = inhibition, inconclusive:
Cc1ccccc1NC(=O)c1c(NC(=O)C(F)(F)F)sc2c1CCCCC2 -44.7% [inhibitor]
